# Test results: the supplement of paper PMC6289059
# Where “and” joins values, the source holds several entries; their conditions need not be identical. Identical values can stand only once. Some of the results follow. Repeats are few or missing, and single values can be far off.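 Hepatocyte-like cells derived from human stem cells with CRISPR-disrupted DGUOK model liver mtDNA depletion syndrome. Each well's ATP signal was scored against other wells on the same plate, and drugs scoring 3 or above were primary hits.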 Residues, ends and D or L forms follow the SMILES beside them.
# System: DGUOK Δ14/Δ5 iPSC-derived hepatocyte-like cells (SV20)
# Assay: ATP level (CellTiter-Glo luminescence) Z score relative to plate distribution, under 2-DG glycolysis block; higher = more cellular ATP (rescue of mitochondrial ATP production)
# Details: 5 µM; treatment time: day 15 to day 20 of differentiation (5 days); 2-deoxy-D-glucose: 20 mM for 24 h before assay
row,Structure (SMILES),ATP level
1,O=C1CCc2cc(OCCCCc3nnnn3C3CCCCC3)ccc2N1,inactive: 0.514
2,COc1cc(OC)c2c(c1)OC(c1ccccc1)CC2=O (stereo unspecified),inactive: 0.767
3,CCCCOc1cc(C(=O)NCCN(CC)CC)c2ccccc2n1,inactive: -3.77
4,CC[C@H]1OC(=O)[C@H](C)C(=O)[C@H](C)[C@@H](O[C@@H]2O[C@H](C)C[C@H](N(C)C)[C@H]2O)[C@](C)(OC)C[C@@H](C)C(=O)[C@H](C)[C@H]2N(CCCCn3cnc(-c4cccnc4)c3)C(=O)O[C@]12C,inactive: -0.249
5,C[C@@]12C[C@@]3(O)O[C@@H](O1)[C@]1(COC(=O)c4ccccc4)[C@H]3C[C@@]12O[C@@H]1O[C@H](CO)[C@@H](O)[C@H](O)[C@H]1O,inactive: 0.67
6,CCC1=C(C)CN(C(=O)NCCc2ccc(S(=O)(=O)NC(=O)N[C@H]3CC[C@H](C)CC3)cc2)C1=O,inactive: -0.274
7,Sc1nc2ccccc2s1,inactive: 0.638
8,COc1ccc2cc1Oc1ccc(cc1)C[C@H]1c3cc(c(OC)cc3CCN1C)Oc1c(OC)c(OC)cc3c1[C@H](C2)N(C)CC3,inactive: -0.815
9,CCOCCOc1ccccc1C(N)=O,inactive: -0.0153
10,C[C@]12CC[C@@H]3c4ccc(O)cc4CC[C@H]3[C@@H]1CCC2=O,inactive: -0.032
11,CC(=O)c1c(O)c(C)c(O)c2c1OC1=CC(=O)C(C(C)=O)C(=O)C12C (stereo unspecified),inactive: -10.3
12,O=C1OC2(c3ccc(O)cc3Oc3cc(O)ccc32)c2ccccc21,inactive: 1.03
13,CC(=O)OCC1=C(C(=O)O)N2C(=O)[C@@H](NC(=O)CSc3ccncc3)[C@H]2SC1,inactive: 0.872
14,COc1cnc(NS(=O)(=O)c2ccc(N)cc2)nc1,inactive: -13.3
15,O=C(O)CCC(=O)Nc1ccc(S(=O)(=O)Nc2nccs2)cc1,inactive: 1.26
16,Cc1cccc(CN2CCN(C(c3ccccc3)c3ccc(Cl)cc3)CC2)c1 (stereo unspecified),inactive: 0.576
17,COc1ccccc1O,inactive: 0.423
18,O=NN(CCCl)C(=O)NC1CCCCC1,inactive: 1.07
19,O=C(O)[C@@H]1CCCN1,inactive: 1.74
20,CC(=O)OCC(=O)[C@@]1(O)CC[C@H]2[C@@H]3C[C@H](C)C4=CC(=O)C=C[C@]4(C)[C@H]3[C@@H](O)C[C@@]21C [6alpha-METHYLPREDNISOLONE ACETATE],inactive: 1.18
21,CCOC(=O)C1=C[C@]2(CC)CCCN3CCc4c(n1c1ccccc41)[C@@H]32,inactive: 2.29
22,COc1ccc(-c2cc(=O)c3c(O)cc(O[C@@H]4O[C@H](CO[C@@H]5O[C@@H](C)[C@H](O)[C@@H](O)[C@H]5O)[C@@H](O)[C@H](O)[C@H]4O)cc3o2)cc1O,inactive: -3.79

row,Structure (SMILES),ATP level
1,CC(C)CC(NC(=O)CN)C(=O)NC(Cc1ccccc1)C(=O)O (stereo not drawn) (H-Gly-Leu-Phe-OH; configuration not given here),inactive: -1.38
2,O=c1c2cc(O)c(O)cc2oc2cc(O)c([C@@H]3O[C@H](CO)[C@@H](O)[C@H](O)[C@H]3O)c(O)c12,inactive: 1.98
3,C/C=N/N(C)C=O,inactive: -3.51
4,C=C1C[C@]23C[C@@]1(O)CC[C@H]2[C@@]12C=C[C@H](O)[C@@](C)(C(=O)O1)[C@H]2[C@@H]3C(=O)O,inactive: -1.62
5,c1ccc2[nH]c(-c3cscn3)nc2c1,inactive: -0.568
6,OC[C@@H](O)[C@@H](O[C@@H]1O[C@H](CO)[C@H](O)[C@H](O)[C@H]1O)[C@H](O)[C@@H](O)CO,inactive: 0.557 and inactive: 1.85
7,CN1[C@@H](CC(=O)c2ccccc2)CCC[C@H]1C[C@H](O)c1ccccc1,inactive: -0.813
8,COc1ccc(C(=O)c2ccc(C)cc2)c(O)c1,inactive: 0.0376
9,NC(=O)NC(=O)Cc1ccccc1,inactive: 1.13
10,CCOC(=O)[C@H](CCc1ccccc1)N[C@@H](C)C(=O)N1CCC[C@H]1C(=O)O,inactive: 2.36
11,CO/N=C(\C(=O)N[C@@H]1C(=O)N2C(C(=O)O)=C(C[N+]3(C)CCCC3)CS[C@H]12)c1csc(N)n1,inactive: 1.99
12,CC(=O)N[C@@H](Cc1ccccc1)C(=O)O,inactive: 0.58
13,Cn1nnnc1SCC1=C(C(=O)O)N2C(=O)[C@@H](NC(=O)[C@H](OC=O)c3ccccc3)[C@H]2SC1,inactive: 1.54
14,OCC(O)C(O)C(O)C(O)C(O)CO (stereo unspecified),inactive: -1.16
15,COc1cc(O)c(C)c(O)c1,inactive: 0.415
16,C[C@]12CC[C@@H]3c4ccc(O)cc4CC[C@H]3[C@@H]1C[C@H](O)[C@@H]2O,inactive: 0.835
17,C[C@H](CCC(=O)O)[C@H]1CC[C@H]2[C@@H]3CC[C@@H]4CCCC[C@]4(C)[C@H]3CC[C@]12C,inactive: 0.96
18,N=C(N)NC(=O)c1nc(Cl)c(N2CCCCCC2)nc1N,inactive: -4.24
19,CC1=C(CC(=O)O)c2cc(F)ccc2/C1=C\c1ccc([S+](C)[O-])cc1 (stereo unspecified),inactive: -0.754
20,CC(Oc1c(Cl)cccc1Cl)C1=NCCN1 (stereo unspecified),inactive: 0.914
21,Cc1cccc2c3c(ccc12)C1=C(C(=O)C3=O)[C@@H](C)CO1,inactive: -2.28
22,C[C@]12CC[C@@H]3c4ccc(O)cc4CC[C@H]3[C@@H]1C[C@@H](O)[C@@H]2O,inactive: -23.5

row,Structure (SMILES),ATP level
1,CCOc1ccc(C(=O)c2ccc(O)c(O)c2O)cc1,inactive: -0.88
2,CCCCC(=O)O[C@]1(C(=O)CO)CC[C@H]2[C@@H]3CCC4=CC(=O)CC[C@]4(C)[C@H]3[C@@H](O)C[C@@]21C,inactive: 1.53
3,CCc1cccc2c3c([nH]c12)C(CC)(CC(=O)O)OCC3 (stereo unspecified),inactive: 1.83
4,Cc1noc(NS(=O)(=O)c2ccc(N)cc2)c1C,inactive: -9.71
5,COc1ccc2c(c1)OCC(Cc1ccc(OC)c(OC(C)=O)c1)C2=O (stereo unspecified),inactive: -2.23
6,OCCOCCN1CCN(C(c2ccccc2)c2ccc(Cl)cc2)CC1 (stereo unspecified),inactive: 0.361
7,CC(=O)O[C@H]1C[C@@H](OC(C)=O)C(C)(C)C2C[C@@H](O)[C@]3(C)C(CC[C@@]4(C)[C@H](c5ccoc5)OC(=O)[C@H]5O[C@]543)[C@]21C (stereo partly specified),inactive: 0.846
8,Cc1cc(-n2c(=O)[nH]c(=O)n(C)c2=O)ccc1Oc1ccc(SC(F)(F)F)cc1,inactive: -2.79
9,Cc1ccccc1N1C(=O)c2cc(S(N)(=O)=O)c(Cl)cc2NC1C (stereo unspecified),inactive: -0.212
10,CO[C@H]1[C@H](O)[C@@H](O)[C@H](O)[C@H](O)[C@H]1O,inactive: 1.8
11,COc1ccc(-c2coc3c(OC)c(OC)cc(O)c3c2=O)cc1,inactive: -0.127
12,COc1ccc(C(=O)c2ccc(O)cc2)c(O)c1O,inactive: 0.787
13,CC(C)COC(=O)c1ccc(N)cc1,inactive: 1.39
14,COC(=O)C(C)c1ccc(C(=O)c2cccs2)cc1 (stereo unspecified),inactive: -0.701
15,COc1ccc2[nH]c([S+]([O-])Cc3ncc(C)c(OC)c3C)nc2c1 (stereo unspecified),inactive: 0.573
16,NCCCC(N)C(=O)O (stereo unspecified),inactive: -0.916
17,CCCCC(CC)CN=C(N)N=C(N)NCCCCCCNC(N)=NC(N)=NCC(CC)CCCC (stereo unspecified),inactive: -2.29
18,O=C(O)c1cc(O)c(=O)c2c(O)c(O)ccc2c1,inactive: -0.106
19,CC(=O)Oc1c(C)c(C)c2c(c1C)CCC(C)(CCCC(C)CCCC(C)CCCC(C)C)O2 (stereo not drawn) [alpha-TOCHOPHERYL ACETATE [4mM]],inactive: -0.227
20,C=CCSCC(N)C(=O)O (stereo unspecified),inactive: 1.93
21,O=S(=O)(O)CCCS(=O)(=O)O,inactive: -11.2
22,O=C1CC(c2ccc(O)cc2)Oc2ccccc21 (stereo unspecified),inactive: -6.89

row,Structure (SMILES),ATP level
1,Cc1cc(O)c(C=O)c2c1C(=O)Oc1c(COC(=O)/C=C/C(=O)O)c(O)c(C(=O)O)c(C)c1O2,inactive: 0.998
2,CN(C)CCOC(=O)COc1ccc(Cl)cc1,inactive: -0.499
3,O=C(OCc1ccccc1)c1ccccc1,inactive: 0.165
4,N=C(N)N/N=C/c1c(Cl)cccc1Cl,inactive: -7.6
5,Cc1ccc2c(Cl)cc(Cl)c(O)c2n1,inactive: 0.308
6,OC(CCN1CCCCC1)(c1ccccc1)C1CCCCC1 (stereo unspecified),inactive: -12.7
7,CCC(=O)OCC(=O)[C@@]1(OC(=O)CC)[C@H](C)C[C@H]2[C@H]3[C@H]([C@@H](O)C[C@@]21C)[C@@]1(C)C=CC(=O)C=C1C[C@H]3Cl,inactive: 0.863
8,CN(CCOc1ccc(CC2SC(=O)NC2=O)cc1)c1ccccn1 (stereo unspecified),inactive: 2.25
9,O=C(CC(=O)c1ccccc1)c1ccccc1,inactive: 0.888
10,C[C@H]1C[C@@H]2[C@H]([C@@H](O)C[C@@]3(C)[C@H]2CC[C@]3(O)C(=O)COC(=O)CCC(=O)O)[C@@]2(C)C=CC(=O)C=C12,active: 7.28
11,Nc1cc(-c2ccncc2)c[nH]c1=O,active: 5.56
12,CC(N)C12CC3CC(CC(C3)C1)C2 (stereo unspecified),inactive: -0.169
13,COC(=O)C(N)CS (stereo unspecified),inactive: 0.844
14,Cn1c([N+](=O)[O-])cnc1COC(N)=O,inactive: 1.87
15,COC(=O)[C@@H]1OC(=O)C2OC23[C@@]1(C)CCC1[C@@]2(C)CCC(=O)C(C)(C)C2C[C@@H](OC(C)=O)[C@]13C (stereo partly specified),inactive: 0.152
16,NC(N)=O,inactive: -1.51
17,COc1ccc(C(=O)NCc2ccc(OCCN(C)C)cc2)cc1OC,inactive: -0.746
18,N[C@@H](C(=O)N[C@@H]1C(=O)N2C(C(=O)O)=C(Cl)CS[C@H]12)c1ccccc1,inactive: 0.841
19,COc1ccc(-c2cc(C(F)F)nn2-c2ccc(S(N)(=O)=O)cc2)cc1F,inactive: -1.29
20,OC[C@H]1O[C@@H](O[C@@H]2[C@@H](CO)OC(O)(CO)[C@H]2O)[C@H](O)[C@@H](O)[C@H]1O (mixture of isomers),inactive: 1.76
